Assay results reported in article PMC7819943, “Rice protein-binding microarrays: a tool to detect cis-acting elements near promoter regions in rice”.
The list shows a part of the results.

Biological target: T1, OsSMF1 (Oryza sativa, UniProt Q6ZLB0 1-436)
T1 sequence: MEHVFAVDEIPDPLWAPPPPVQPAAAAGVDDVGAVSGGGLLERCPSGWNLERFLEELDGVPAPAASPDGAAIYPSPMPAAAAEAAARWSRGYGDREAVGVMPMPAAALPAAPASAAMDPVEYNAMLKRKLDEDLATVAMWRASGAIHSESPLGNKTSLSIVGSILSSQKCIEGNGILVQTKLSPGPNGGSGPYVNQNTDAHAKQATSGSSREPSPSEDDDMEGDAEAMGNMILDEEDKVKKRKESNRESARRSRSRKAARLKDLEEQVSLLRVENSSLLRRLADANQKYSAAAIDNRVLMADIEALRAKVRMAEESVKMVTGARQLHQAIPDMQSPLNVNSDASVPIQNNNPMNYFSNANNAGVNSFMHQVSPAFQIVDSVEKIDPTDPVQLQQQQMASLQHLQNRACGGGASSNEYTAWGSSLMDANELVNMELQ
Experiment: protein-binding microarray (RPBM); PBS, 2% BSA, 51.3 ng/ul salmon testes DNA, 50 uM zinc acetate, 200 nM TF, 25 C, 1 h; high values mean tight binding
Details: protein: recombinant; tags: N-terminal polyhistidine and DsRed monomer fusion (pET32a); chain copies: 2; label: CyDye5-dUTP incorporated in the synthesized complementary strand; 3' TTTTT single-stranded linker to array surface; dsDNA, one strand shown
Summary of the method: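 Per-feature fluorescence intensity (arbitrary units), read on an Axon 4000B scanner, is the binding signal. Transcription factors carrying an N-terminal polyhistidine tag and DsRed fusion were expressed in E. coli BL21-CodonPlus and purified on Ni–NTA. A custom Agilent array, made double-stranded by primer extension with Cy5-dUTP and blocked with 2% BSA, was incubated with 200 nM protein in PBS, 2% BSA, salmon testes DNA and 50 µM zinc acetate at 25 °C for 1 h and then washed.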

Row | Sequence | binding signal
1 | ATCACTGATCTACTCCAAATGATGGGTCATGCTAGCAGGCCGGAGTCACCTAGTGCAG | 3670 fluorescence intensity (a.u.)
2 | TAGAAAATAATGATGATGATGATGGCAATAGGTTAACAATCGGAGTCACCTAGTGCAG | 3510 fluorescence intensity (a.u.)
3 | GCTGCTGCGTGTCTGTGTGCCGCGCCACCTATGCACCTCGCGGAGTCACCTAGTGCAG | 3670 fluorescence intensity (a.u.)
4 | GTCTCATGAGTCATGGAGGCCATTACAGGTTTTCCTCTCCCGGAGTCACCTAGTGCAG | 8080 fluorescence intensity (a.u.)
5 | AAACTAAATACTACGAGGTCCCACCTCATCATAGGTATGCCGGAGTCACCTAGTGCAG | 3460 fluorescence intensity (a.u.)
6 | GTGTACTCTTGTTTAGTTGTCAGGTCGATTTTGAGAACATCGGAGTCACCTAGTGCAG | 3140 fluorescence intensity (a.u.)
7 | AACGTTACCACCGCGTTTTGGTGTCATTTTCAATGCTGCTCGGAGTCACCTAGTGCAG | 3170 fluorescence intensity (a.u.)
8 | AGCAGCCAGCTGTAGCACGGACTCCAAGACATAACATGTGCGGAGTCACCTAGTGCAG | 3780 fluorescence intensity (a.u.)
9 | GTGGTAGGTTTTGGTTTGGATGATTGGTAGTTAGCTCGTGCGGAGTCACCTAGTGCAG | 3260 fluorescence intensity (a.u.)
10 | TCCAGCTCTGAATTTCACTCTGCATGCATAAGTTGCAGGACGGAGTCACCTAGTGCAG | 48100 fluorescence intensity (a.u.)
11 | TGTCACTGCAAGGATGTAGAAAGCTGGAGCATGTGGAGTTCGGAGTCACCTAGTGCAG | 3140 fluorescence intensity (a.u.)
12 | TTCTGCACTTCTGCTTCACCCCGGCTGACATTGCACACCGCGGAGTCACCTAGTGCAG | 3760 fluorescence intensity (a.u.)
13 | ATTGTAAAACGGAGGAAGTACTATCCAAGTCATCAACCGACGGAGTCACCTAGTGCAG | 6870 fluorescence intensity (a.u.)
14 | GGATGCATACGTAGACACATTTCGTCTGATTTAATCTTATCGGAGTCACCTAGTGCAG | 3260 fluorescence intensity (a.u.)
15 | ACCAAAATCCGTAGGTCGTATCGTAGGGAGGGCCTGCGCCCGGAGTCACCTAGTGCAG | 24700 fluorescence intensity (a.u.)
16 | TCGCAACTTCTTACTTGCTGAGAGAATCATGCGGTCCGCACGGAGTCACCTAGTGCAG | 3640 fluorescence intensity (a.u.)
17 | CTGAAGATCGCACTACGCATTCGTGTTGTTTCTCTAATGCCGGAGTCACCTAGTGCAG | 3150 fluorescence intensity (a.u.)
18 | ATAAATCTGGACATGCTCCCTGTCCAGATTTATAGTACTACGGAGTCACCTAGTGCAG | 3370 fluorescence intensity (a.u.)
19 | CCCACTTCACTAGCTACTCCAGTCAGCTAATCCCTTCCCGCGGAGTCACCTAGTGCAG | 3160 fluorescence intensity (a.u.)
20 | AGTGGTGTCAAACCTGATGAAATTACCATGCTGAGTGTAACGGAGTCACCTAGTGCAG | 3950 fluorescence intensity (a.u.)
21 | TTAAAGGTTGGGACTGCCCTAATAACCTCTCACGCCACGTCGGAGTCACCTAGTGCAG | 7510 fluorescence intensity (a.u.)

Row | Sequence | binding signal
22 | CGCCTCCATCCCTCCCATTCCCGAACACGTCCCCAAGGTACGGAGTCACCTAGTGCAG | 3330 fluorescence intensity (a.u.)
23 | AGTGTTGGAGTTGGAGTTGTTATGACTTATGGATTTACCTCGGAGTCACCTAGTGCAG | 3320 fluorescence intensity (a.u.)
24 | TCTCCTCCCCACCCGATGCACGCCATGCCAAGAGAGAAGACGGAGTCACCTAGTGCAG | 3320 fluorescence intensity (a.u.)
25 | CCTCCGCCTCGTCAACCCGCGCTTGCCCTCCCACGCTGCCCGGAGTCACCTAGTGCAG | 3350 fluorescence intensity (a.u.)
26 | ACCCGTTCTTTCTCACGCTTGTGGCGTGCATTGTCAATCACGGAGTCACCTAGTGCAG | 3870 fluorescence intensity (a.u.)
27 | ATATTCATATGACATGACACGTAAATGTCACGTAGGATATCGGAGTCACCTAGTGCAG | 3700 fluorescence intensity (a.u.)
28 | AATCTCTACAATTATAGTATTCTCTCCATTCTAAAATACACGGAGTCACCTAGTGCAG | 5680 fluorescence intensity (a.u.)
29 | TCAGATGACATGAGTCATACACTGGTTGTTGCCGCGGATACGGAGTCACCTAGTGCAG | 10100 fluorescence intensity (a.u.)
30 | CCAACCCCGATAATAACTCTGTCATCGGATTCAAGGACAACGGAGTCACCTAGTGCAG | 4030 fluorescence intensity (a.u.)
31 | CCAGCATCATATTTCAAGCTGAGCTGTAGTTCTCATTACTCGGAGTCACCTAGTGCAG | 4640 fluorescence intensity (a.u.)
32 | CCATGATTAGTCCTAAGTGCTACGGTAATCCACATGTGCTCGGAGTCACCTAGTGCAG | 3240 fluorescence intensity (a.u.)
33 | CCATGCCAAGATACAGGACAGCATCACAACGCATCATCGCCGGAGTCACCTAGTGCAG | 3610 fluorescence intensity (a.u.)
34 | ACTCCCCTGACAGAGTGGCCCCACCCAGGCGCGTACCTCCCGGAGTCACCTAGTGCAG | 3240 fluorescence intensity (a.u.)
35 | GCCGGCTGTGTACGACGCGTGGCCTCGACGTGGCAGCGCCCGGAGTCACCTAGTGCAG | 16000 fluorescence intensity (a.u.)
36 | CGTCCGTGGCGTCGTCCGCCGCCGCCGCCGCCGCCGCCAGCGGAGTCACCTAGTGCAG | 3340 fluorescence intensity (a.u.)
37 | CCACATGACAGCCACCTCCGAATGGCGCCTGTCCCTACATCGGAGTCACCTAGTGCAG | 3430 fluorescence intensity (a.u.)
38 | CCCTCCCGAACAGTTTCTCTGAGGTGGTATTTTACGTGTACGGAGTCACCTAGTGCAG | 3580 fluorescence intensity (a.u.)
39 | GCAGAACGAACAGGTTTGCTTACCACACAGCCAGCTCAGACGGAGTCACCTAGTGCAG | 4450 fluorescence intensity (a.u.)
40 | AACGGAGGCCCCATCTGTCAGGCCACGTGGAATCACCCACCGGAGTCACCTAGTGCAG | 16300 fluorescence intensity (a.u.)
41 | GTAAGTTGAATGATGTCATATATTTAATTTTACGGTAAGTCGGAGTCACCTAGTGCAG | 6940 fluorescence intensity (a.u.)
42 | CGTCGTTTCGTTTAGCATATGTTGTCACGGTACATGTATGCGGAGTCACCTAGTGCAG | 4410 fluorescence intensity (a.u.)

Reprinted at random: two records from the list.
Row | Sequence | binding signal
4 | GTCTCATGAGTCATGGAGGCCATTACAGGTTTTCCTCTCCCGGAGTCACCTAGTGCAG | 8080 fluorescence intensity (a.u.)
2 | TAGAAAATAATGATGATGATGATGGCAATAGGTTAACAATCGGAGTCACCTAGTGCAG | 3510 fluorescence intensity (a.u.)
